The target of the test is VC-Venus fragment alone (C-terminal fragment of split Venus). The test can be described thus: split reporter; BiFC with split Venus (VN, VC); mRNAs (200 pg each) injected into one-cell zebrafish embryos, fluorescence imaged at 3 hpf.

Results are given in words; binding and its absence hold for the method and conditions named. In cells and extracts the contact can be indirect. Where a sequence is shown, tags or fusion partners need not be part of it.

B1: Vasa-VN (Vasa fused to the N-terminal fragment of split Venus) (protein, UniProt O42107 1-716)
chain: MDDWEEDQSPVVSCSSGFGLGSNGSDGGFKSFYTGGAGNDKSNSEGTEGSSWKMTGDSFRGRGGRGGSRGGRGGFSGFKSEIDENGSDGGWNGGESRGRGRGGFRGGFRSGSRDENDENRNDDGWKGGESRGRGRGGFGGSFRGGFRDGGNEDTGRRGFGRENNENGNDEGGEGRGRGRGGFRGGFRDGGGDESGKRGFGRGGFRGRNEEVFSKVTTADKLDQEGSENAGPKVVYVPPPPPEEESSIFSHYATGINFDKYDDILVDVSGSNPPKAIMTFEEAGLCDSLSKNVSKSGYVKPTPVQKHGIPIISAGRDLMACAQTGSGKTAAFLLPILQRFMTDGVAASKFSEIQEPEAIIVAPTRELINQIYLEARKFAYGTCVRPVVVYGGINTGYTIREVLKGCNVLCATPGRLHDLIGRGKIGLSKVRYLVLDEADRMLDMGFEPEMRKLVASPGMPSKEERQTLMFSATYPEDIQRMAADFLKVDYIFLAVGVVGGACSDVEQTVVQVDQYSKRDQLLELLRATGNERTMVFVETKRSADFIATFLCQEKISTTSIHGDREQREREKALSDFRLGHCPVLVATSVAARGLDIEQVQHVVNFDMPSSIDEYVHRIGRTGRCGNTGRAVSFFNPESDTPLARSLVKVLSGAQQVVPKWLEEVAFSAHGTTGFNPRGKVFASTDSRKGGSFKSDEPPPSQTSAPSAAAAADDEEWE
For B1, the binding entry is given as “no binding”.

(Values after paper PMC6219760.)
